These are yes or no findings as the source states them, for the method shown. For some assays here: Binding calls can cover weak binding; strength is not graded here.
What was measured:
[1] = target: human-mouse chimeric molecule DR-IE (human; murine); assay: ELISA, coated antigen
transferrin = assay: ELISA, coated antigen
lysozyme = assay: ELISA, coated antigen
[2] = target: human-mouse chimeric molecule DR-IE (human; murine); assay: ELISA (FIG. 1b)

binding [1]	binding (transferrin)	binding (lysozyme)	binding [2]	Binder
binds	no binding	no binding	binds	MS-GPC-1 Fab (Fab, V domains shown) VH: QVQLKESGPALVKPTQTLTLTCTFSGFSLSTSGVGVGWIRQPPGKALEWLALIDWDDDKYYSTSLKTRLTISKDTSKNQVVLTMTNMDPVDTATYYCARQYGHRGGFDHWGQGTLVTVSS VL: DIVLTQPPSVSGAPGQRVTISCSGSSSNIGSNYVSWYQQLPGTAPKLLIYDNNQRPSGVPDRFSGSKSGTSASLAITGLQSEDEADYYCQSYDFNESVFGGGTKLTVLG
binds	no binding	no binding	binds	MS-GPC-10 Fab (Fab, V domains shown) VH: QVQLKESGPALVKPTQTLTLTCTFSGFSLSTSGVGVGWIRQPPGKALEWLALIDWDDDKYYSTSLKTRLTISKDTSKNQVVLTMTNMDPVDTATYYCARQLHYRGGFDLWGQGTLVTVSS VL: DIVLTQPPSVSGAPGQRVTISCSGSSSNIGSNYVSWYQQLPGTAPKLLIYDNNQRPSGVPDRFSGSKSGTSASLAITGLQSEDEADYYCQSYDLTMGVFGGGTKLTVLG
